Laboratory results from paper PMC10665427.
Results are given in words; binding and its absence hold for the method and conditions named. In cells and extracts the contact can be indirect. Here binding means that the protein was enriched with, or labelled near, the bait; the list need not be complete. Tags and fused reporters may be left off the sequences shown.

Target: T1, Lon^TRAP-Twin-Strep-tag (Lon S674A active-site mutant) (C. crescentus) (UniProt B8GX12)
T1 sequence: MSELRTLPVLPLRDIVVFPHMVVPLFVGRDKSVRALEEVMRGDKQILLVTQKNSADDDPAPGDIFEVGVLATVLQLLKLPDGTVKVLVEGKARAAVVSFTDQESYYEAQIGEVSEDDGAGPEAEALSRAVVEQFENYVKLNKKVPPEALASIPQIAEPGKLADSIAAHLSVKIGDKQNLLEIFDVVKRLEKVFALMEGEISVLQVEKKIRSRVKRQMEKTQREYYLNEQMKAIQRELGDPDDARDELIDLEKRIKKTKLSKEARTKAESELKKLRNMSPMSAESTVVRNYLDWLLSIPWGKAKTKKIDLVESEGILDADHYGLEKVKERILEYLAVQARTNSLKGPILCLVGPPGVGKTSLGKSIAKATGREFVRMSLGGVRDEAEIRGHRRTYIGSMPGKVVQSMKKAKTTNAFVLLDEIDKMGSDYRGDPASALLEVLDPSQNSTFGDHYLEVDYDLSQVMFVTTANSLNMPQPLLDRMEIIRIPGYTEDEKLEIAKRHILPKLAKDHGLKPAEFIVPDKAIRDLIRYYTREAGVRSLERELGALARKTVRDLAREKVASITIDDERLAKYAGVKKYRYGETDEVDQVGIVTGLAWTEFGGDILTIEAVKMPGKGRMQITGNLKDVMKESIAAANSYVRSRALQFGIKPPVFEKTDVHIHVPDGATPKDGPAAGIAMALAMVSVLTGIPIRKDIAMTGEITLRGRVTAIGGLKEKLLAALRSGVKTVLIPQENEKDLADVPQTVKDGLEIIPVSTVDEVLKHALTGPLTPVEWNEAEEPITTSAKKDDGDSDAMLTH
Experiment: affinity purification with mass spectrometry; Twin-Strep-tagged Lon^TRAP (bait) purified on Strep-TactinXT from lysates of Δlon C. crescentus after 2 h xylose; elution fractions TMT-labelled and analysed by LC-MS; compared with Lon^WT and a no-Lon control; two replicates

B1: DnaA (protein, UniProt P0CAU4 1-490)
chain: MTMKGGVASQDFSAAIATACEPAANVWSKVCVALKRELGDAAFGSWIAPAMLREAATGDVVLVTSTGIARDWIRRSAWRRIGELWAAHDATGRRIDLKSRLEFEAAAGAYVEATPKAVAAEPIEIVLPVSTDAPTVVAPSAKSPRTQGLQERFTFETFVPGPANEFAHAVARRIANWADGHFNPVLFHGPYGFGKTHLLNALAWEAMRNAPEKRVVYLTAERFLSTFVRAVMDRQTAAFKEELRAADLLIIDDVHFIAGKQSTQEELFHTLTALVGEGGRVVFSADRPPSAMTEMDAHLRSHLSAGLVCGLEPADRNLRLGILERKIQTLGAAHGFEPSIRPEVMQFLADRFTDSVRELEGALNTLSARAGEGLSRMTLDEVQAILRPHLRSGEKRITIDDIQKATAEHYGMKQADLLSERRNRAVARPRQAAMWLAKQLTTRSLPDIGRRFGGRDHTTVLHAVRRIEALRAEDSALSHDLETLTRKLRG
  binding: binds
